According to paper doi:10.1101/2020.12.04.411520:
Results are given in words; binding and its absence hold for the method and conditions named. Binding seen in cells or lysates may run through a third protein. Some binding calls cover weakened binding; strength is not graded here. Sequences can lack the tags named with a protein.

Chains of the proteins cited; added tags and fusions are not shown. Lines headed by an entry give the natural chain unless they say otherwise; changes in a name come on top.
UniProt P05787: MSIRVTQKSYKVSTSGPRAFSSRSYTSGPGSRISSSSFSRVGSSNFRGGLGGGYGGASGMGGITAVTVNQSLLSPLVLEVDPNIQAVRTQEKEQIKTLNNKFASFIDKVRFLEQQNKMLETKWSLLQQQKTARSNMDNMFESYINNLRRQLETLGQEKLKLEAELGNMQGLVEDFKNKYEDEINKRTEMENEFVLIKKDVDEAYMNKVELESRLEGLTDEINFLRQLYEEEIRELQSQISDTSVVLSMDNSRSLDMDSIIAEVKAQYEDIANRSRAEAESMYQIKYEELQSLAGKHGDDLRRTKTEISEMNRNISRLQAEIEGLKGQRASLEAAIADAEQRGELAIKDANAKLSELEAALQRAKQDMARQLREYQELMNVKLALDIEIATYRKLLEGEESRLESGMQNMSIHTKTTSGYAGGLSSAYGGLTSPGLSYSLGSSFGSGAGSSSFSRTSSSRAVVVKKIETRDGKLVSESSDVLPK

Target: T1, BioGFP::BBLN (human) (UniProt Q9BUW7)
T1 sequence (chain, biotin (Bio tag, BirA co-expressed)): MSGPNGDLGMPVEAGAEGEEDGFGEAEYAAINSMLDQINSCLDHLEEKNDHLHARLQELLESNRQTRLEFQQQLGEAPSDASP
Test: pull-down

## keratin 8/18 (from UniProt P05787 1-483; P05783 1-430) (complex)
  binding: binds
